PubChem BioAssay AID1671195 – Yale University – 2021
This is an unselected part of about 22,000 deposited reagents. About 1,510 of them (6.9%) count as active. 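Active includes knockdowns raising or lowering LDL uptake; positive z-scores mean more uptake, negative mean less.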 No sequences are given here.

Assay: 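Knockdowns that increase or decrease uptake of fluorescent LDL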 (primary screen)
System: human Huh7 hepatoma cells
Reagents: siRNA pool against human genes, 18 nM
Timing: about 2 to 2.5 days of knockdown, then 8 h LDL uptake
Treatment: DiI-labelled LDL at 30 µg/ml for 8 h, in lipoprotein-deficient serum medium
Measurement: 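Per-cell DiI-LDL intensity by automated imaging; well means scaled to the plate median and given as a robust z-score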
Reading the numbers: robust z-score: higher = more LDL uptake after knockdown
Active means: 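Active when two or more replicates show a robust z-score above 2 or below -2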

| Gene | robust z-score, replicate 1 | robust z-score, replicate 2 | robust z-score, replicate 3 | outcome |
| --- | --- | --- | --- | --- |
| LINC00550 (long independently transcribed non-coding RNA 550) | -0.0217 | -0.261 | -0.146 | inactive |
| SLC5A3 | -1.07 | -1.22 | -1.41 | inactive |
| LHFPL5 (LHFPL tetraspan subfamily member 5) | 0.227 | -0.0215 | 0.483 | inactive |
| PDCD1 (programmed cell death 1) | -0.408 | -1.64 | -0.247 | inactive |
| BAZ1A (bromodomain adjacent to zinc finger domain 1A) | -0.612 | 1.6 | -0.345 | inactive |
| S100A1 (S100 calcium binding protein A1) | 0.2 | 0.0686 | 0.244 | inactive |
| COX16 (cytochrome c oxidase assembly factor COX16) | 0.0331 | 0.381 | 0.568 | inactive |
| DUX1 (double homeobox 1) | 1.61 | 0.743 | 0.55 | inactive |
| MED12 (mediator complex subunit 12) | -0.326 | -1.91 | -0.817 | inactive |
| SLC25A5P7 | -0.782 | -0.73 | -0.952 | inactive |
| SLC5A11 | 0.139 | 0.374 | 0.874 | inactive |
| NFXL1 (nuclear transcription factor, X-box binding like 1) | -0.988 | -1.06 | -1.01 | inactive |
| RNASEH2A (ribonuclease H2 subunit A) | -0.652 | -0.712 | -0.62 | inactive |
| GUSB (glucuronidase beta) | -1.5 | -0.817 | -1.04 | inactive |
| C6orf47 (chromosome 6 open reading frame 47) | 0.101 | 0.0131 | 0.875 | inactive |
| DPPA4 (developmental pluripotency associated 4) | -1.18 | -0.139 | -2.01 | inactive |
| ZNF483 (zinc finger protein 483) | -0.572 | -0.905 | -0.578 | inactive |
| SLC1A3 | -0.632 | -0.887 | -0.841 | inactive |
| PECR (peroxisomal trans-2-enoyl-CoA reductase) | -2.37 | -1.67 | -2.04 | active |
| N4BP3 (NEDD4 binding protein 3) | -0.992 | -1.1 | -0.448 | inactive |
| SLC37A4 | -0.696 | -0.471 | -0.212 | inactive |
| LOC401513 (retired record) | 0.295 | 0.654 | 0.48 | inactive |
| ZNF496 (zinc finger protein 496) | -1.5 | -1.83 | -1.61 | inactive |
| ACTR1A (actin related protein 1A) | -1.03 | -1.31 | -0.297 | inactive |
| CFAP68 (cilia and flagella associated protein 68) | -0.565 | 0.23 | -0.201 | inactive |
| IYD (iodotyrosine deiodinase) | -0.475 | -0.341 | -0.401 | inactive |
| LOC343295 (retired record) | 2.58 | 2.41 | 2.85 | active |
| PRICKLE3 (prickle planar cell polarity protein 3) | 2.36 | 2.57 | 1.14 | active |
| IPO4 (importin 4) | -1.04 | -1.31 | -1.4 | inactive |
| CUL9 (cullin 9) | -0.0141 | 0.661 | 0.274 | inactive |
| PCDHAC2 (protocadherin alpha subfamily C, 2) | 3.74 | 4.01 | 4.22 | active |
| LOC442456 (retired record) | -0.609 | -0.0579 | 0.272 | inactive |
| SELENOI (selenoprotein I) | 0.951 | 1.41 | 1.25 | inactive |
| LOC402300 (retired record) | -0.914 | -0.091 | -0.407 | inactive |
| CUL2 (cullin 2) | 0.81 | 4.52 | 2.49 | active |
| SH2D3A (SH2 domain containing 3A) | -0.52 | 0.626 | -0.269 | inactive |
| STAG1 (STAG1 cohesin complex component) | -2.58 | -1.35 | 0.227 | inactive |
| ATG7 (autophagy related 7) | -0.337 | -0.231 | -0.348 | inactive |
| LOC441643 (retired record) | -1.15 | -0.291 | -0.742 | inactive |
| ATP7A (ATPase copper transporting alpha) | 0.963 | 0.967 | 1.39 | inactive |
| YBX3 (Y-box binding protein 3) | 0.555 | 0.889 | 0.541 | inactive |
| MZT2B (mitotic spindle organizing protein 2B) | 0.209 | 0.424 | 0.873 | inactive |
| NAPSA (napsin A aspartic peptidase) | -0.28 | -0.0816 | -0.111 | inactive |
| PDCD11 (programmed cell death 11) | 0.869 | 0.921 | 0.919 | inactive |
| RTP4 (receptor transporter protein 4) | -2.08 | -1.69 | -1.74 | inactive |
| COG7 (component of oligomeric golgi complex 7) | -1.74 | -0.918 | -0.805 | inactive |
| B3GNT4 | -0.535 | -0.223 | -0.633 | inactive |
| CLCA4 (chloride channel accessory 4) | 0.0541 | -0.67 | 0.422 | inactive |
| PTGER2 (prostaglandin E receptor 2) | -1.02 | -0.632 | -0.869 | inactive |
| CRLS1 (cardiolipin synthase 1) | 0.00648 | 0.282 | 0.585 | inactive |
| SCP2D1 (SCP2 sterol binding domain containing 1) | 1.73 | 1.59 | 1.12 | inactive |
| PPP2R1A (protein phosphatase 2 scaffold subunit Aalpha) | -1.77 | -1.88 | -1.56 | inactive |

Records above whose gene name starts with C or c:
| Gene | robust z-score, replicate 1 | robust z-score, replicate 2 | robust z-score, replicate 3 | outcome |
| --- | --- | --- | --- | --- |
| COX16 (cytochrome c oxidase assembly factor COX16) | 0.0331 | 0.381 | 0.568 | inactive |
| C6orf47 (chromosome 6 open reading frame 47) | 0.101 | 0.0131 | 0.875 | inactive |
| CFAP68 (cilia and flagella associated protein 68) | -0.565 | 0.23 | -0.201 | inactive |
| CUL9 (cullin 9) | -0.0141 | 0.661 | 0.274 | inactive |
| CUL2 (cullin 2) | 0.81 | 4.52 | 2.49 | active |
| COG7 (component of oligomeric golgi complex 7) | -1.74 | -0.918 | -0.805 | inactive |
| CLCA4 (chloride channel accessory 4) | 0.0541 | -0.67 | 0.422 | inactive |
| CRLS1 (cardiolipin synthase 1) | 0.00648 | 0.282 | 0.585 | inactive |

Continued:
| Gene | robust z-score, replicate 1 | robust z-score, replicate 2 | robust z-score, replicate 3 | outcome |
| --- | --- | --- | --- | --- |
| ZNF407 (zinc finger protein 407) | -2.17 | -2.21 | -2.51 | active |
| PANX3 (pannexin 3) | -0.203 | 0.785 | 0.556 | inactive |
| FKBP4P2 (FKBP prolyl isomerase 4 pseudogene 2) | 2.58 | 2.82 | 2.51 | active |
| S100Z (S100 calcium binding protein Z) | 0.151 | -0.0122 | 0.0869 | inactive |
| EXOSC4 (exosome component 4) | -1.03 | -1.24 | -1.51 | inactive |
| TUT4 (terminal uridylyl transferase 4) | -0.473 | 0.613 | -1.02 | inactive |
| LINC00710 (long independently transcribed non-coding RNA 710) | 0.421 | 0.48 | 0.551 | inactive |
| XKR5 (XK related 5) | 1.24 | 2.4 | 2.62 | active |
| HSCB (HscB mitochondrial iron-sulfur cluster cochaperone) | 0.23 | 0.0409 | -0.691 | inactive |
| TTK (TTK protein kinase) | -0.585 | -0.682 | -0.791 | inactive |
| LETM2 | -0.387 | -0.255 | -0.0876 | inactive |
| LINC03034 (long independently transcribed non-coding RNA 3034) | 0.655 | 0.516 | 0.135 | inactive |
| CTLA4 (cytotoxic T-lymphocyte associated protein 4) | -0.194 | -0.671 | -0.734 | inactive |
| SHISA5 (shisa family member 5) | -0.56 | -1.37 | -0.82 | inactive |
| PACSIN2 (protein kinase C and casein kinase substrate in neurons 2) | -0.712 | -0.463 | -0.896 | inactive |
| TGFBR3 (transforming growth factor beta receptor 3) | -1.13 | -0.81 | -0.975 | inactive |
| CLCA1 (chloride channel accessory 1) | -1.02 | -1.07 | -0.925 | inactive |
| HDGFL2 (HDGF like 2) | 0.13 | 0.348 | -0.07 | inactive |
| PALS1 (protein associated with LIN7 1, MAGUK p55 family member) | -0.39 | 0.222 | -1.03 | inactive |
| VCF2 (VCP nuclear cofactor family member 2) | -0.62 | -0.644 | -0.389 | inactive |
| GREM2 (gremlin 2, DAN family BMP antagonist) | -0.945 | -1.01 | -0.203 | inactive |
| COPS3 (COP9 signalosome subunit 3) | 1.73 | 2.23 | 2.31 | active |
| ARHGEF11 (Rho guanine nucleotide exchange factor 11) | 0.739 | 0.227 | 0.158 | inactive |
| TGFB1I1 (transforming growth factor beta 1 induced transcript 1) | -1.08 | -1.33 | -1.15 | inactive |
| HTR5A (5-hydroxytryptamine receptor 5A) | 3.09 | 1.45 | 2.28 | active |
| TDRD3 (tudor domain containing 3) | 0.554 | 1.1 | 1.6 | inactive |
| LOC730118 | -0.484 | -0.606 | -0.117 | inactive |
| CDK5R1 (cyclin dependent kinase 5 regulatory subunit 1) | -2.05 | -1.46 | -0.591 | inactive |
| LOC440817 (retired record) | 3.33 | 2.94 | 4.45 | active |
| FAAP100 (FA core complex associated protein 100) | 0.335 | 0.486 | 0.299 | inactive |
| N4BP2 (NEDD4 binding protein 2) | 0.921 | -0.618 | -0.864 | inactive |
| MIEF1 (mitochondrial elongation factor 1) | -2.04 | -2.47 | -2.06 | active |
| MOSPD3 (motile sperm domain containing 3) | 0.893 | 0.23 | 0.829 | inactive |
| PCDHGA5 (protocadherin gamma subfamily A, 5) | -0.454 | -0.171 | -0.522 | inactive |
| RPL29 (ribosomal protein L29) | 0.181 | -0.148 | 0.33 | inactive |
